# Experimental data reported in paper PMC9880817.
# No constants are given. Whether binding was seen depends on the method and setting. Binding seen in cells or lysates may run through a third protein. These calls come from enrichment with a bait or labelling near it, and not all partners need be listed. Where a sequence is shown, tags or fusion partners need not be part of it.
# T1: Slr0149 with a green fluorescent protein (GFP) at its C-terminus (Synechocystis sp. PCC 6803) (UniProt P74448)
# T1 sequence: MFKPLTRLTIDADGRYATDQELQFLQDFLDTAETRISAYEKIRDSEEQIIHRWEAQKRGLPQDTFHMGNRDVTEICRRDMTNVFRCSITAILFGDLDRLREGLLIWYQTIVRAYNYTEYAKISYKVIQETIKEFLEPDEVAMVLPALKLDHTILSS
# Target: T1, Slr0149 with a green fluorescent protein (GFP) at its C-terminus (Synechocystis sp. PCC 6803)
# Experiment: affinity purification with mass spectrometry; lysate with the C-terminally GFP-tagged bait; anti-GFP antibody (ab290) on Protein A MagBeads; sample detected by MS
row,binding,Molecule
1,binds,Slr0145
2,binds,Slr0144
3,binds,Slr0147
4,binds,Slr0148
5,binds,"Slr0146 (protein, UniProt P74445 1-170) MQKDFERLFHRAEDHYLQPPEIISFHKQLGLMRERLSAYRLLRDNEIVIFQAIADRLEEEFSNVPATQLQQALLHWISVLRYGAMAMLLSNPEYLQYRLLEWLEGMVQAHDLLAIEIRLSALLKEQLESLLGGPQYRLLEPFLVQADQTILGQAPAAVAEEEAEMMTLGE"
